Values from PubChem BioAssay AID1224826 (NIAID, 2016).

Purpose: 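Regulators of Tlr4 signalling leading to Tnf-alpha expression in macrophages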 (primary screen)
Cell system: RAW264.7 G9 macrophages from mouse bearing reporters for p65 (GFP) and the Tnf promoter (mCherry)
Reagents: siRNA pool against mouse genes, 100 nM
Timing: 16 h of LPS stimulation, after 2 days of siRNA transfection
Treatment: bacterial lipopolysaccharide (Salmonella minnesota R595), 10 ng/ml
Read-out: 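Nuclear mCherry signal of the Tnf promoter reporter measured by imaging after background removal, scaled to each plate median and turned into robust z-scores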
Scale: Tnf reporter robust z-score: higher = stronger Tnf promoter reporter signal after LPS; Tnf reporter intensity: higher = stronger Tnf promoter reporter signal
Active means: 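Called active when robust z-score is at most -1.3, matching the median of the Tlr4 knock-down control, or over 3; control wells and wells with under 50 cells never active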
Meaning of the calls: active = Tnf reporter clearly lowered or raised; inactive = no clear change in Tnf reporter
The deposit covers about 17,000 reagents; below is a random part of them. Of all reagents, about 1,110 (6.6%) got an active call. 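Active means lowered or raised reporter signal; replicate intensities are raw and not normalised per plate.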 Unmarked entries are inactive. No sequences are given here.

Target gene | Tnf reporter robust z-score | fewer than 50 cells in well | Tnf reporter intensity, replicate 1 | Tnf reporter intensity, replicate 2
Nat8f2 | 0.87 | enough cells in well | 204 | 240
Dnase2a | -0.21 | enough cells in well | 222 | 185
Timd4 | -0.36 | enough cells in well | 128 | 165
Dao | 1.43 | enough cells in well | 339 | 343
Ncoa1 | -0.23 | enough cells in well | 238 | 194
Slc35f5 | – | fewer than 50 cells per well; well left out of calls | 42.9 | 128
Slc6a20a | 3.11 (active) | enough cells in well | 269 | 239
Syngr2 | 1.12 | enough cells in well | 154 | 135
Chchd2 | -0.62 | enough cells in well | 108 | 169
Bdkrb1 | 0.67 | enough cells in well | 252 | 383
Acap3 | -0.29 | enough cells in well | 141 | 169
Ovch2 | -0.94 | enough cells in well | 82.1 | 87.7
Ntng2 | 1.91 | enough cells in well | 267 | 281
Or1o1 | -0.82 | enough cells in well | 130 | 114
Tbc1d4 | – | fewer than 50 cells per well; well left out of calls | 105 | 140
Fabp1 | 0.1 | enough cells in well | 265 | 208
Cnppd1 | 5.12 (active) | enough cells in well | 277 | 232
Haus6 | 0.58 | enough cells in well | 208 | 179
Ccna1 | -0.66 | enough cells in well | 196 | 157
Ccdc157 | 1.78 | enough cells in well | 181 | 109
Neu2 | -0.3 | enough cells in well | 190 | 103
Peak1 | -0.39 | enough cells in well | 159 | 147
Bcl10 | 2.04 | enough cells in well | 249 | 267
Etf1 | -1.23 | enough cells in well | 114 | 157
Mrpl11 | 0.69 | enough cells in well | 266 | 33.7
Or5d16 | 0.09 | enough cells in well | 181 | 165
Lcn3 | -0.96 | enough cells in well | 102 | 108
Hhipl2 | – | fewer than 50 cells per well; well left out of calls | 137 | 42.8
Capns1 | -0.22 | enough cells in well | 137 | 147
Tmem145 | -0.28 | enough cells in well | 195 | 179
Csk | -0.8 | enough cells in well | 124 | 131
Traf3 | -0.31 | enough cells in well | 224 | 184
Gpx8 | – | fewer than 50 cells per well; well left out of calls | 165 | 49.6
Arr3 | 1.39 | enough cells in well | 254 | 239
Usp15 | 1.11 | enough cells in well | 312 | 320
Prkd3 | 1.29 | enough cells in well | 270 | 242
Kif17 | -0.46 | enough cells in well | 192 | 134
Ddx59 | – | fewer than 50 cells per well; well left out of calls | 179 | 87.1
Or3a1c | 0.21 | enough cells in well | 335 | 82.2
Zfp106 | 0.05 | enough cells in well | 107 | 149

Entries above called active (2):
Target gene | Tnf reporter robust z-score | fewer than 50 cells in well | Tnf reporter intensity, replicate 1 | Tnf reporter intensity, replicate 2
Slc6a20a | 3.11 (active) | enough cells in well | 269 | 239
Cnppd1 | 5.12 (active) | enough cells in well | 277 | 232
